Reference: paper PMC4706560
No constants are given. Whether binding was seen depends on the method and setting. In cells and extracts the contact can be indirect. Some entries that bind do so weakly or less than the wild type. For part of these data: Sequences can lack the tags named with a protein.

Protein sequences, listed by entry. Tags and fused reporters are not part of them.
UniProt Q03135: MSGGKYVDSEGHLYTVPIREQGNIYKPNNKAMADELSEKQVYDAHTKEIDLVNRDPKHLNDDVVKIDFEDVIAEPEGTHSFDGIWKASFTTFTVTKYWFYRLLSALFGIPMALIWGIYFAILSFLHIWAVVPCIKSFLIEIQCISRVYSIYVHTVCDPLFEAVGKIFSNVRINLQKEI

T1: Desmoglein 3 (human (endogenous in HaCaT)) (UniProt P32926)
T1 sequence: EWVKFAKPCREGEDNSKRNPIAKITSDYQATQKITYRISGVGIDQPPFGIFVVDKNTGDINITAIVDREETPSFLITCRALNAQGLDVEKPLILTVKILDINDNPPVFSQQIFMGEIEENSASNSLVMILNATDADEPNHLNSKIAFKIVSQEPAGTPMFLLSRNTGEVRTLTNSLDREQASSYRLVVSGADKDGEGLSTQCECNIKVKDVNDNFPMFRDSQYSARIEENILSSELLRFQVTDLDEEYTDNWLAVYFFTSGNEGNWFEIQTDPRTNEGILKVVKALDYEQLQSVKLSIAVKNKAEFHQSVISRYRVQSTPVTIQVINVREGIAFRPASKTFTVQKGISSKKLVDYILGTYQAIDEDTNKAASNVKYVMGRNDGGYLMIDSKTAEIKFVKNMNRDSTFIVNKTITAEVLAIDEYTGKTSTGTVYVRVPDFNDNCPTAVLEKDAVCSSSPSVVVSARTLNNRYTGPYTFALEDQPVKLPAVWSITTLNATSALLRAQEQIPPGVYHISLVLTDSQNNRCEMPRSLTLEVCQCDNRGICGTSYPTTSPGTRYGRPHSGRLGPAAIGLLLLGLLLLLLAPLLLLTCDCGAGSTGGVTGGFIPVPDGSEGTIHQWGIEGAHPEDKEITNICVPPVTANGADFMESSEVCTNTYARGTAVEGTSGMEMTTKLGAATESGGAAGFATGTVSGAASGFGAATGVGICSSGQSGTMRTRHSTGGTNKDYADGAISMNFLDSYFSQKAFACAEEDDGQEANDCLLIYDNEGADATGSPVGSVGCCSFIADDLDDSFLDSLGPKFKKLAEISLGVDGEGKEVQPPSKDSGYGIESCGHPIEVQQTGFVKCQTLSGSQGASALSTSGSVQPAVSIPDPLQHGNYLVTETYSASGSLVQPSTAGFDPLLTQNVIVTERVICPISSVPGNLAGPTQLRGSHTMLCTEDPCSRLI


Tests used:
[1] = target: T1, Desmoglein 3 (human (endogenous in HaCaT)); assay: co-IP; immunoprecipitation with mouse antibody against Dsg3 from Triton X-100-soluble and -insoluble fractions of HaCaT cells, 500 µg protein of each fraction; Western blotting
[2] = target: T1, Desmoglein 3 (human (endogenous in HaCaT)); assay: proximity ligation; Duolink PLA on fixed HaCaT cells, mouse Dsg3 Ab (5H10) with rabbit Cav-1 Ab or rabbit anti-Src; negative control A431-V cells with 5H10 and rabbit anti-Myc tag Ab
[3] = target: caveolin-1 (human (endogenous in HaCaT and A431)) (UniProt Q03135); assay: co-IP; rabbit caveolin antibody coupled to Dynabeads, overnight at 4 °C, 500 µg total protein; lysates of A431-Vect and A431-hDsg3.myc cells and of HaCaT cells with scrambled or Dsg3 siRNA; Western blotting

binding [1]	binding [2]	binding [3]	Molecule
binds	binds		caveolin-1 (from UniProt Q03135 1-178)
		binds	hDsg3.myc (protein, UniProt P32926 50-999) EWVKFAKPCREGEDNSKRNPIAKITSDYQATQKITYRISGVGIDQPPFGIFVVDKNTGDINITAIVDREETPSFLITCRALNAQGLDVEKPLILTVKILDINDNPPVFSQQIFMGEIEENSASNSLVMILNATDADEPNHLNSKIAFKIVSQEPAGTPMFLLSRNTGEVRTLTNSLDREQASSYRLVVSGADKDGEGLSTQCECNIKVKDVNDNFPMFRDSQYSARIEENILSSELLRFQVTDLDEEYTDNWLAVYFFTSGNEGNWFEIQTDPRTNEGILKVVKALDYEQLQSVKLSIAVKNKAEFHQSVISRYRVQSTPVTIQVINVREGIAFRPASKTFTVQKGISSKKLVDYILGTYQAIDEDTNKAASNVKYVMGRNDGGYLMIDSKTAEIKFVKNMNRDSTFIVNKTITAEVLAIDEYTGKTSTGTVYVRVPDFNDNCPTAVLEKDAVCSSSPSVVVSARTLNNRYTGPYTFALEDQPVKLPAVWSITTLNATSALLRAQEQIPPGVYHISLVLTDSQNNRCEMPRSLTLEVCQCDNRGICGTSYPTTSPGTRYGRPHSGRLGPAAIGLLLLGLLLLLLAPLLLLTCDCGAGSTGGVTGGFIPVPDGSEGTIHQWGIEGAHPEDKEITNICVPPVTANGADFMESSEVCTNTYARGTAVEGTSGMEMTTKLGAATESGGAAGFATGTVSGAASGFGAATGVGICSSGQSGTMRTRHSTGGTNKDYADGAISMNFLDSYFSQKAFACAEEDDGQEANDCLLIYDNEGADATGSPVGSVGCCSFIADDLDDSFLDSLGPKFKKLAEISLGVDGEGKEVQPPSKDSGYGIESCGHPIEVQQTGFVKCQTLSGSQGASALSTSGSVQPAVSIPDPLQHGNYLVTETYSASGSLVQPSTAGFDPLLTQNVIVTERVICPISSVPGNLAGPTQLRGSHTMLCTEDPCSRLI
